Laboratory results published in US12398138B2, “FGFR inhibitor compound in solid form and preparation method therefor” (CSPC ZHONGQI PHARMACEUTICAL TECHNOLOGY (SHIJIAZHUANG) CO., …, priority 2019, dated 2025).
Like-named read-outs stand apart in the source and are kept apart here.

Assay: Pharmacokinetic investigation in dogs
Type: in vivo
Conditions: male, dog, plasma, beagle dogs, read-out: Concentration integral AUC
Source text: The experiments aimed to test the pharmacokinetics of the test compound in beagle dogs.
Two beagle dogs were selected as one group. The compound was formulated into a designated preparation. The vehicle for intravenous injection was a mixture of DMSO: polyethylene glycol […] (PEG400): saline=10:40:50 (volume ratio) or a mixture of 10% DMSO/10% solutol/80% water. The vehicle for oral administration was a mixture of 0.5% methylcellulose (MC)+0.2% Tween. Each animal was given the preparation intragastrically at a predetermined dosage. […]
The plasma concentration of the compound was processed using a non-compartmental model by WinNonlin™ Version 6.3.0 (Pharsight, Mountain View, Calif.) pharmacokinetic software. The peak concentration (Cmax), time of maximum plasma concentration (Tmax), and time of the last quantifiable concentration, were determined directly from the curve of plasma concentration−time. […]
For the individual plasma concentration below the detection line, when it appeared before Tmax, it was calculated as 0; when it appeared after Tmax, it was directly excluded. […]
In these experiments, the pharmacokinetic parameters were calculated based on the theoretical blood collection time and theoretical administration concentration in the embodiments. […]

C=CC(=O)N1CC[C@H](n2nc(C#Cc3cc(OC)cc(OC)c3)c3c(N)ncnc32)C1 [reference compound 1, reference compound]
AUC (1 mg/kg, intravenous administration (1 mpk)): 2.29 µM·h | AUC (5 mg/kg, oral administration (5 mpk)): 4.67 µM·h
